{"source": "PubChem BioAssay AID1508597 (Cure First, 2020)", "test": "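Genes whose silencing sensitises or protects ovarian cancer cells against rucaparib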 (primary screen)", "cell system": "human ovarian carcinoma lines grown from tumours: OCI-P5x (papillary serous) and OCI-C5x (clear cell)", "reagent": "siRNA pool against human genes, 1.25 pmol siRNA per well", "timing": "72 h or 96 h, depending on the cell culture", "conditions": "rucaparib 20 µM (about IC30) or vehicle, present until read-out", "rucaparib or vehicle": "Rucaparib", "cell line": "OCI-P5x (serous)", "measured": "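Luminescent ATP-based viability assay read 72 or 96 h after transfection, depending on culture, given as normalised percent viability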", "scale": "viability, normalised: higher = more viable cells remaining", "hit rule": "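Active when normalised viability falls below 80 percent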", "calls": "active = viability under 80%; inactive = viability 80% or more", "note": "Shown is an unselected part of the about 2,100 reagents, in one setting of the screen. 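Calls flag viability under 80% in either arm, not effects specific to rucaparib; the reference for percent is not stated.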 Some reagents were tested in more than one well and are listed for each. No sequences are given here. Not given: the 100% reference."}
{"gene knocked down": "DHX9", "technical replicate": "1", "viability, normalised (%)": 59, "activity call": "active"}
{"gene knocked down": "DHX9", "technical replicate": "1", "viability, normalised (%)": 66.5, "activity call": "active"}
{"gene knocked down": "DHX9", "technical replicate": "2", "viability, normalised (%)": 90.9, "activity call": "inactive"}
{"gene knocked down": "DHX9", "technical replicate": "2", "viability, normalised (%)": 54.2, "activity call": "active"}
{"gene knocked down": "DHX9", "technical replicate": "3", "viability, normalised (%)": 81.2, "activity call": "inactive"}
{"gene knocked down": "DHX9", "technical replicate": "3", "viability, normalised (%)": 51.8, "activity call": "active"}
{"gene knocked down": "DHX29", "technical replicate": "1", "viability, normalised (%)": 58.9, "activity call": "active"}
{"gene knocked down": "DHX29", "technical replicate": "2", "viability, normalised (%)": 63.1, "activity call": "active"}
{"gene knocked down": "DHX29", "technical replicate": "3", "viability, normalised (%)": 62.7, "activity call": "active"}
{"gene knocked down": "AIRE", "technical replicate": "1", "viability, normalised (%)": 55.7, "activity call": "active"}
{"gene knocked down": "AIRE", "technical replicate": "2", "viability, normalised (%)": 74, "activity call": "active"}
{"gene knocked down": "AIRE", "technical replicate": "3", "viability, normalised (%)": 55.2, "activity call": "active"}
{"gene knocked down": "TIE1", "technical replicate": "1", "viability, normalised (%)": 54.8, "activity call": "active"}
{"gene knocked down": "TIE1", "technical replicate": "1", "viability, normalised (%)": 104, "activity call": "inactive"}
{"gene knocked down": "TIE1", "technical replicate": "2", "viability, normalised (%)": 59.5, "activity call": "active"}
{"gene knocked down": "TIE1", "technical replicate": "2", "viability, normalised (%)": 102, "activity call": "inactive"}
{"gene knocked down": "TIE1", "technical replicate": "3", "viability, normalised (%)": 62.9, "activity call": "active"}
{"gene knocked down": "TIE1", "technical replicate": "3", "viability, normalised (%)": 101, "activity call": "inactive"}
{"gene knocked down": "PARP6", "technical replicate": "1", "viability, normalised (%)": 29, "activity call": "active"}
{"gene knocked down": "PARP6", "technical replicate": "2", "viability, normalised (%)": 32.6, "activity call": "active"}
{"gene knocked down": "PARP6", "technical replicate": "3", "viability, normalised (%)": 34.2, "activity call": "active"}
{"gene knocked down": "ACVR1", "technical replicate": "1", "viability, normalised (%)": 114, "activity call": "inactive"}
{"gene knocked down": "ACVR1", "technical replicate": "2", "viability, normalised (%)": 106, "activity call": "inactive"}
{"gene knocked down": "ACVR1", "technical replicate": "3", "viability, normalised (%)": 97.3, "activity call": "inactive"}
{"gene knocked down": "ARID4B", "technical replicate": "1", "viability, normalised (%)": 87.8, "activity call": "inactive"}
{"gene knocked down": "ARID4B", "technical replicate": "2", "viability, normalised (%)": 71, "activity call": "active"}
{"gene knocked down": "ARID4B", "technical replicate": "3", "viability, normalised (%)": 71.4, "activity call": "active"}
{"gene knocked down": "BRSK1", "technical replicate": "1", "viability, normalised (%)": 66, "activity call": "active"}
{"gene knocked down": "BRSK1", "technical replicate": "2", "viability, normalised (%)": 63.3, "activity call": "active"}
{"gene knocked down": "BRSK1", "technical replicate": "3", "viability, normalised (%)": 87, "activity call": "inactive"}
{"gene knocked down": "NRG1", "technical replicate": "1", "viability, normalised (%)": 37.8, "activity call": "active"}
{"gene knocked down": "NRG1", "technical replicate": "2", "viability, normalised (%)": 51.9, "activity call": "active"}
{"gene knocked down": "NRG1", "technical replicate": "3", "viability, normalised (%)": 33, "activity call": "active"}
